# Data taken from patent US6809177 (dated 2004).
# Experiment: peptide synthesis
# Conditions: late stage modification step
substance,measurement,setting,value
deoxymulundocandin,step yield,run 1,75%
same,step yield,run 2,30% yield
